In publication PMC9935549:
No constants are given. Whether binding was seen depends on the method and setting. In cells and extracts the contact can be indirect. A yes stands for co-enrichment or nearness to the bait. Other partners may have been found. Blank lines part the entries; values can stand above or below the binder they belong to.

Amino acid sequences for entries named in this document (tags omitted).
UniProt O75533: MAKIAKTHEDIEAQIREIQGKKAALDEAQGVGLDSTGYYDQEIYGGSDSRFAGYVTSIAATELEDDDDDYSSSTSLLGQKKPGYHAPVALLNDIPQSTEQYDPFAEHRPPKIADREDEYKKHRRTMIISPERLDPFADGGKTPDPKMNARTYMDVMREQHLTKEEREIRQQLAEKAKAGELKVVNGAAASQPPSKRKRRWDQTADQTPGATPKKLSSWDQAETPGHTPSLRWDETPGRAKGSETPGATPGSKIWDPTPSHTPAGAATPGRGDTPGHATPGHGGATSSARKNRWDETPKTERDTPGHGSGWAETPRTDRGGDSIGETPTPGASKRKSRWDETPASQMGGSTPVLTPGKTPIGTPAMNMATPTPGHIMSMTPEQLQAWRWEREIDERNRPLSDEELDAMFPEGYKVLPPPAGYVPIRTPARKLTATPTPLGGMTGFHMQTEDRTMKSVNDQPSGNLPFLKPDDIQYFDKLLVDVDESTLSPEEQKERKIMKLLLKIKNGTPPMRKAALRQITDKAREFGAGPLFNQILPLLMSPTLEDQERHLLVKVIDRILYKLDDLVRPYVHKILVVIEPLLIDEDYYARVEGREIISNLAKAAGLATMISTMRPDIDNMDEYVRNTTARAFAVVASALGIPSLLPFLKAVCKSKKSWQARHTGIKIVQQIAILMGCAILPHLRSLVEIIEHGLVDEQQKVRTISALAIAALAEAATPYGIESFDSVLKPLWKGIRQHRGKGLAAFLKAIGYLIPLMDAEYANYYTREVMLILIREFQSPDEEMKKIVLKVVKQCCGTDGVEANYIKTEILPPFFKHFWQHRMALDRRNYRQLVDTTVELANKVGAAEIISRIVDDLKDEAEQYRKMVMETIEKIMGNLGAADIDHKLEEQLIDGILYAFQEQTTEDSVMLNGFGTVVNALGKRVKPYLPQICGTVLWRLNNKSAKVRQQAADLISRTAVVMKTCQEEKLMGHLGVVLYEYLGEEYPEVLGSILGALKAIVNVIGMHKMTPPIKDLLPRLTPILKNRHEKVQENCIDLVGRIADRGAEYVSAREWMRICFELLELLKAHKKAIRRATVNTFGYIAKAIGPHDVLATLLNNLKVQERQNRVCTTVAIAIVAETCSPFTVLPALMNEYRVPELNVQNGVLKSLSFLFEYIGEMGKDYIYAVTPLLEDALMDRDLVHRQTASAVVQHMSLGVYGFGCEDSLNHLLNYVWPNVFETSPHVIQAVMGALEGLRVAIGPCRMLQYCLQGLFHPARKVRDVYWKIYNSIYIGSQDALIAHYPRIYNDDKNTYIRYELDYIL

Target: Flag-tagged SF3B1 (full-length) (human) (UniProt O75533)
Experiment: affinity purification with mass spectrometry; Flag-SF3B1 expressed in HEK293F; cleared lysate on anti-Flag M2 affinity gel, 2 h, 4 °C; lysis buffer 20 mM HEPES-KOH pH 7.9, 150 mM NaCl, 1.5 mM MgCl2, 0.05% NP-40; eluted with FLAG peptide, trypsin digest, mass spectrometry

- binding: binds
B1: DDX42 (endogenous, HEK293F) (protein, UniProt Q86XP3 1-938)
chain: MNWNKGGPGTKRGFGFGGFAISAGKKEEPKLPQQSHSAFGATSSSSGFGKSAPPQLPSFYKIGSKRANFDEENAYFEDEEEDSSNVDLPYIPAENSPTRQQFHSKPVDSDSDDDPLEAFMAEVEDQAARDMKRLEEKDKERKNVKGIRDDIEEEDDQEAYFRYMAENPTAGVVQEEEEDNLEYDSDGNPIAPTKKIIDPLPPIDHSEIDYPPFEKNFYNEHEEITNLTPQQLIDLRHKLNLRVSGAAPPRPGSSFAHFGFDEQLMHQIRKSEYTQPTPIQCQGVPVALSGRDMIGIAKTGSGKTAAFIWPMLIHIMDQKELEPGDGPIAVIVCPTRELCQQIHAECKRFGKAYNLRSVAVYGGGSMWEQAKALQEGAEIVVCTPGRLIDHVKKKATNLQRVSYLVFDEADRMFDMGFEYQVRSIASHVRPDRQTLLFSATFRKKIEKLARDILIDPIRVVQGDIGEANEDVTQIVEILHSGPSKWNWLTRRLVEFTSSGSVLLFVTKKANAEELANNLKQEGHNLGLLHGDMDQSERNKVISDFKKKDIPVLVATDVAARGLDIPSIKTVINYDVARDIDTHTHRIGRTGRAGEKGVAYTLLTPKDSNFAGDLVRNLEGANQHVSKELLDLAMQNAWFRKSRFKGGKGKKLNIGGGGLGYRERPGLGSENMDRGNNNVMSNYEAYKPSTGAMGDRLTAMKAAFQSQYKSHFVAASLSNQKAGSSAAGASGWTSAGSLNSVPTNSAQQGHNSPDSPVTSAAKGIPGFGNTGNISGAPVTYPSAGAQGVNNTASGNNSREGTGGSNGKRERYTENRGSSRHSHGETGNRHSDSPRHGDGGRHGDGYRHPESSSRHTDGHRHGENRHGGSAGRHGENRGANDGRNGESRKEAFNRESKMEPKMEPKVDSSKMDKVDSKTDKTADGFAVPEPPKRKKSRWDS

- binding: binds
B2: DDX46 (endogenous, HEK293F) (protein, UniProt Q7L014 1-1031)
chain: MGRESRHYRKRSASRGRSGSRSRSRSPSDKRSKRGDDRRSRSRDRDRRRERSRSRDKRRSRSRDRKRLRRSRSRERDRSRERRRSRSRDRRRSRSRSRGRRSRSSSPGNKSKKTENRSRSKEKTDGGESSKEKKKDKDDKEDEKEKDAGNFDQNKLEEEMRKRKERVEKWREEQRKKAMENIGELKKEIEEMKQGKKWSLEDDDDDEDDPAEAEKEGNEMEGEELDPLDAYMEEVKEEVKKFNMRSVKGGGGNEKKSGPTVTKVVTVVTTKKAVVDSDKKKGELMENDQDAMEYSSEEEEVDLQTALTGYQTKQRKLLEPVDHGKIEYEPFRKNFYVEVPELAKMSQEEVNVFRLEMEGITVKGKGCPKPIKSWVQCGISMKILNSLKKHGYEKPTPIQTQAIPAIMSGRDLIGIAKTGSGKTIAFLLPMFRHIMDQRSLEEGEGPIAVIMTPTRELALQITKECKKFSKTLGLRVVCVYGGTGISEQIAELKRGAEIIVCTPGRMIDMLAANSGRVTNLRRVTYVVLDEADRMFDMGFEPQVMRIVDNVRPDRQTVMFSATFPRAMEALARRILSKPIEVQVGGRSVVCSDVEQQVIVIEEEKKFLKLLELLGHYQESGSVIIFVDKQEHADGLLKDLMRASYPCMSLHGGIDQYDRDSIINDFKNGTCKLLVATSVAARGLDVKHLILVVNYSCPNHYEDYVHRAGRTGRAGNKGYAYTFITEDQARYAGDIIKALELSGTAVPPDLEKLWSDFKDQQKAEGKIIKKSSGFSGKGFKFDETEQALANERKKLQKAALGLQDSDDEDAAVDIDEQIESMFNSKKRVKDMAAPGTSSVPAPTAGNAEKLEIAKRLALRINAQKNLGIESQDVMQQATNAILRGGTILAPTVSAKTIAEQLAEKINAKLNYVPLEKQEEERQDGGQNESFKRYEEELEINDFPQTARWKVTSKEALQRISEYSEAAITIRGTYFPPGKEPKEGERKIYLAIESANELAVQKAKAEITRLIKEELIRLQNSYQPTNKGRYKVL
